# PubChem BioAssay AID1224830 – NIAID | 2016
# Screen: 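Host factors that control LPS-induced TNF expression in human macrophages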 (primary screen)
# Cell system: human THP-1 monocytic leukaemia cells, TNF dual-luciferase reporter clone, PMA-differentiated to macrophage-like cells
# Reagents: siRNA pool against human genes, 50 nM
# Duration: LPS for 4 h, given about 3 days after siRNA transfection
# Challenge: bacterial LPS (TLR4 ligand), 10 ng/ml
# Detection: 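TNF firefly reporter luminescence divided by renilla, normalised to the plate median, then turned into a robust z-score for each replicate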
# Scale: TNF reporter robust z-score: higher = stronger TNF reporter response to LPS
# Active means: 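a well is active when its z-score exceeds 2.8 or falls below -1.5; control wells carry no call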
# The deposit covers about 18,000 reagents; shown is a random part of them. About 2,900 of them (16%) were called active. 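Calls are made per well; low scores hint the gene aids the LPS response, high scores that it dampens it.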 Entries without a mark were called inactive. Repeated entries: four replicate wells of each siRNA pool.
gene symbol,TNF reporter robust z-score
SF3B1,-1.57 (active)
SF3B1,-1.38
SF3B1,-1.81 (active)
SF3B1,-1.45
TMED9,-0.35
TMED9,0.13
TMED9,-0.42
TMED9,-0.46
CHMP4A,-0.65
CHMP4A,0.76
CHMP4A,0.39
CHMP4A,0.14
PTCHD3,-0.06
PTCHD3,-0.25
PTCHD3,-0.63
PTCHD3,-0.02
OR5B12,1.38
OR5B12,-0.33
OR5B12,1.24
OR5B12,1.98
SLC37A4,-0.06
SLC37A4,0.17
SLC37A4,-0.3
SLC37A4,0.1
DMKN,-0.87
DMKN,0.05
DMKN,0.01
DMKN,0.68
KCNV1,-0.44
KCNV1,-0.9
KCNV1,-1.34
KCNV1,-0.82
PPP1R12C,-1.29
PPP1R12C,-0.74
PPP1R12C,-0.7
PPP1R12C,-0.5
OR4D6,1.1
OR4D6,0.45
OR4D6,-0.12
OR4D6,1.24
TMCC1,0.11
TMCC1,-0.42
TMCC1,0.2
TMCC1,0.82
GNRH1,1.38
GNRH1,0.91
GNRH1,0.41
GNRH1,0.39

Continued (3 carried over from the part before).
gene symbol,TNF reporter robust z-score
GNRH1,0.91
GNRH1,0.41
GNRH1,0.39
CYP4B1,-0.32
CYP4B1,0.93
CYP4B1,0.4
CYP4B1,0.11
SSX3,0.03
SSX3,0.21
SSX3,0.07
SSX3,0.39
OR5AS1,-0.58
OR5AS1,-0.53
OR5AS1,-0.37
OR5AS1,0.05
XKRY,0.58
XKRY,1.39
XKRY,-1.04
XKRY,-0.7
ZFP14,0.14
ZFP14,0.58
ZFP14,1.68
ZFP14,0.1
ZNF747,-1.26
ZNF747,-1.08
ZNF747,-1.21
ZNF747,-1.2
ATP5MC2,-0.64
ATP5MC2,-0.41
ATP5MC2,-0.11
ATP5MC2,-0.07
USP1,0.28
USP1,-1.16
USP1,-1.14
USP1,-0.3
POU5F1,1.94
POU5F1,-1.14
POU5F1,0
POU5F1,0.55
FBXO30,-2.06 (active)
FBXO30,-1.47
FBXO30,-1.38
FBXO30,-0.41
GARIN6,-0.3
GARIN6,0.7
GARIN6,-0.56
GARIN6,-0.66
PKN1,-1.25
PKN1,-0.77
PKN1,-0.54
PKN1,0.2
ALDOB,1.31
ALDOB,2.39
ALDOB,1.7
ALDOB,0.41
CHURC1,0.16
CHURC1,0.41
CHURC1,0.03
CHURC1,1.01
RPS13,-0.79
RPS13,1.17
RPS13,0.26
RPS13,0.77
OR2G2,0.09
OR2G2,2.46
OR2G2,0.07
OR2G2,1.75
